{"source": "PubChem BioAssay AID686943 (Drosophila RNAi Screening Center, 2013)", "aim": "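Search across the genome for regulators of signalling from receptor tyrosine kinase to ERK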 (primary screen)", "cells": "Drosophila S2R+ haemocyte-like cells expressing YFP-tagged ERK (Rolled)", "reagents": "long dsRNA against Drosophila genes", "conditions": "insulin stimulation versus unstimulated cells; dose and duration not given", "measurement": "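Per-plate z-scores of phospho-ERK immunostaining normalised to YFP-tagged ERK, measured with and without insulin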", "direction": "replicate 1, z-score of dpERK with insulin: higher = more active ERK per ERK-YFP after insulin", "note": "The screen tested about 23,000 reagents; this is an unselected part of those with a known target gene and a result. 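Extra replicates exist only for a retested subset of genes; insulin dose and duration not given; both raised and lowered dpERK matter.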 A plus sign joins genes that one reagent is predicted to hit. Further read-outs or replicates are left out here. Not stated in the record: the amount of reagent, the time to read-out."}
{"Target gene":"Spt6","dsRNA":"DRSC18836","replicate 1, z-score of dpERK with insulin":3.32}
{"Target gene":"CG13247","dsRNA":"DRSC11695","replicate 1, z-score of dpERK with insulin":-0.05}
{"Target gene":"CG11694","dsRNA":"DRSC14354","replicate 1, z-score of dpERK with insulin":0.24}
{"Target gene":"Drp1","dsRNA":"DRSC00574","replicate 1, z-score of dpERK with insulin":0.04}
{"Target gene":"CG8746","dsRNA":"DRSC07257","replicate 1, z-score of dpERK with insulin":-0.04}
{"Target gene":"CG10916","dsRNA":"DRSC06012","replicate 1, z-score of dpERK with insulin":1.28}
{"Target gene":"DptB","dsRNA":"DRSC06001","replicate 1, z-score of dpERK with insulin":0.59}
{"Target gene":"CG42557 + CG42558","dsRNA":"DRSC13963","replicate 1, z-score of dpERK with insulin":-0.09}
{"Target gene":"CG42557 + CG42558","dsRNA":"DRSC16329","replicate 1, z-score of dpERK with insulin":-0.16}
{"Target gene":"Ald1","dsRNA":"DRSC14109","replicate 1, z-score of dpERK with insulin":-0.56}
{"Target gene":"hpRNA:CR32205","dsRNA":"DRSC09610","replicate 1, z-score of dpERK with insulin":-0.49}
{"Target gene":"hpRNA:CR32205","dsRNA":"DRSC09890","replicate 1, z-score of dpERK with insulin":-0.33}
{"Target gene":"asRNA:CR43430 + hts","dsRNA":"DRSC07629","replicate 1, z-score of dpERK with insulin":0.36}
{"Target gene":"CG31219","dsRNA":"DRSC15140","replicate 1, z-score of dpERK with insulin":-0.3}
{"Target gene":"twz","dsRNA":"DRSC04069","replicate 1, z-score of dpERK with insulin":0.13}
{"Target gene":"CG14102","dsRNA":"DRSC10103","replicate 1, z-score of dpERK with insulin":1.53}
{"Target gene":"Chpf","dsRNA":"DRSC19491","replicate 1, z-score of dpERK with insulin":0.04}
{"Target gene":"Chpf","dsRNA":"DRSC19893","replicate 1, z-score of dpERK with insulin":0.6}
{"Target gene":"glu","dsRNA":"DRSC03539","replicate 1, z-score of dpERK with insulin":-0.07}
{"Target gene":"CG10383","dsRNA":"DRSC02050","replicate 1, z-score of dpERK with insulin":-0.26}
{"Target gene":"Drep3","dsRNA":"DRSC06312","replicate 1, z-score of dpERK with insulin":-1.53}
{"Target gene":"Drep3","dsRNA":"DRSC07529","replicate 1, z-score of dpERK with insulin":-1.26}
{"Target gene":"Drep3","dsRNA":"DRSC22344","replicate 1, z-score of dpERK with insulin":0.49}
{"Target gene":"arx","dsRNA":"DRSC10386","replicate 1, z-score of dpERK with insulin":0.18}
{"Target gene":"CG4866","dsRNA":"DRSC06899","replicate 1, z-score of dpERK with insulin":0.62}
{"Target gene":"CG13021","dsRNA":"DRSC17893","replicate 1, z-score of dpERK with insulin":0.91}
{"Target gene":"CG10749","dsRNA":"DRSC09798","replicate 1, z-score of dpERK with insulin":0.13}
{"Target gene":"ThrRS","dsRNA":"DRSC02843","replicate 1, z-score of dpERK with insulin":0.46}
{"Target gene":"CG12920","dsRNA":"DRSC06234","replicate 1, z-score of dpERK with insulin":1.94}
{"Target gene":"htk","dsRNA":"DRSC20029","replicate 1, z-score of dpERK with insulin":-0.43}
{"Target gene":"htk","dsRNA":"DRSC20031","replicate 1, z-score of dpERK with insulin":0.34}
